Test results published in the supplement of paper PMC10849652.
Some of the results follow.

Chains of the proteins cited; added tags and fusions are not shown. Lines headed by an entry give the natural chain unless they say otherwise; changes in a name come on top.
UniProt Q00613: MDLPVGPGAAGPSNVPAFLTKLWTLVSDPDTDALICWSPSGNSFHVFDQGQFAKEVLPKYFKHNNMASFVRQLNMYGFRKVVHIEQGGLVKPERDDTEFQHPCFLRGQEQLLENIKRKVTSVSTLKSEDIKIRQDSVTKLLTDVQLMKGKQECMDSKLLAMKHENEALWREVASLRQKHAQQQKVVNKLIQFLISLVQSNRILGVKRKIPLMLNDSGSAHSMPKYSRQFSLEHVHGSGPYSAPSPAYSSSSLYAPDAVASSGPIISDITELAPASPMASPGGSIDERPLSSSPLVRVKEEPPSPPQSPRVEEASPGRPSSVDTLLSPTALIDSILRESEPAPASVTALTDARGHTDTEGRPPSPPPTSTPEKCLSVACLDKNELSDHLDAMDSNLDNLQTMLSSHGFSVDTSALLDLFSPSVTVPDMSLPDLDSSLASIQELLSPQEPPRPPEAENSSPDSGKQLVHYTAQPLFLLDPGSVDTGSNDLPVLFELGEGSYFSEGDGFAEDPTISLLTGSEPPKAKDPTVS
UniProt P54652, whole entry, looked up: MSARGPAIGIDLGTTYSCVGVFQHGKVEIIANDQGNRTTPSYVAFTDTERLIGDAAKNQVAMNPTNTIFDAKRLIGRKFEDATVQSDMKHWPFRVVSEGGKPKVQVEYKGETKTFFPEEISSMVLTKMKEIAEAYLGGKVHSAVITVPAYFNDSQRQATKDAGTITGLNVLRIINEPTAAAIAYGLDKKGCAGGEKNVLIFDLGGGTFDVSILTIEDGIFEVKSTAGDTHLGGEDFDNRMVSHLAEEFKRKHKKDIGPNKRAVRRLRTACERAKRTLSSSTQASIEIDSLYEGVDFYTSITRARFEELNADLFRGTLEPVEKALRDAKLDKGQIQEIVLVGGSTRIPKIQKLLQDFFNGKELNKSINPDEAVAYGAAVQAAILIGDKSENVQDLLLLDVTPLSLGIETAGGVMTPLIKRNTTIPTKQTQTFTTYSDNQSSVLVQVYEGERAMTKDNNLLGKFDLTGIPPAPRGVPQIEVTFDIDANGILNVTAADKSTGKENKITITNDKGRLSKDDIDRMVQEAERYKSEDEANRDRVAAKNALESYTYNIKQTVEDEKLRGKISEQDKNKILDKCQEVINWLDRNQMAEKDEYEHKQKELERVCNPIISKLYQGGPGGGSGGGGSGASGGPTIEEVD
UniProt Q9NQE9: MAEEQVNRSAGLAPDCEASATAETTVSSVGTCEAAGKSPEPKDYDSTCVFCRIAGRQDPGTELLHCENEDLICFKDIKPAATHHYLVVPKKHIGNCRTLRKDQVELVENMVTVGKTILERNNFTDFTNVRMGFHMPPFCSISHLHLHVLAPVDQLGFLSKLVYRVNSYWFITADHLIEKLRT
UniProt Q0VDF9: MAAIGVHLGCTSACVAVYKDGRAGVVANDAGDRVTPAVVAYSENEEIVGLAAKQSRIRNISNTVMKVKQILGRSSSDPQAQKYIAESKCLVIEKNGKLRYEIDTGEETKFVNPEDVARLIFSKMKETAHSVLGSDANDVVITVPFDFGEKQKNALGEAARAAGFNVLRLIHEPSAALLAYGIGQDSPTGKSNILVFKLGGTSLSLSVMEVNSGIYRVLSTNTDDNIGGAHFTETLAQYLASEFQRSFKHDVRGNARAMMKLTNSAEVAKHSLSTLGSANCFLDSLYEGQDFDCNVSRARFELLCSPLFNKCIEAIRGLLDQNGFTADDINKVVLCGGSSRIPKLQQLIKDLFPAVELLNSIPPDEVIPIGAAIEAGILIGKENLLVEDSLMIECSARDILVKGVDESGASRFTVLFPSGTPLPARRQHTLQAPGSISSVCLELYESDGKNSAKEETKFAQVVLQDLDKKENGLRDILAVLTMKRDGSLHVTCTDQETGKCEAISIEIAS
UniProt P34932: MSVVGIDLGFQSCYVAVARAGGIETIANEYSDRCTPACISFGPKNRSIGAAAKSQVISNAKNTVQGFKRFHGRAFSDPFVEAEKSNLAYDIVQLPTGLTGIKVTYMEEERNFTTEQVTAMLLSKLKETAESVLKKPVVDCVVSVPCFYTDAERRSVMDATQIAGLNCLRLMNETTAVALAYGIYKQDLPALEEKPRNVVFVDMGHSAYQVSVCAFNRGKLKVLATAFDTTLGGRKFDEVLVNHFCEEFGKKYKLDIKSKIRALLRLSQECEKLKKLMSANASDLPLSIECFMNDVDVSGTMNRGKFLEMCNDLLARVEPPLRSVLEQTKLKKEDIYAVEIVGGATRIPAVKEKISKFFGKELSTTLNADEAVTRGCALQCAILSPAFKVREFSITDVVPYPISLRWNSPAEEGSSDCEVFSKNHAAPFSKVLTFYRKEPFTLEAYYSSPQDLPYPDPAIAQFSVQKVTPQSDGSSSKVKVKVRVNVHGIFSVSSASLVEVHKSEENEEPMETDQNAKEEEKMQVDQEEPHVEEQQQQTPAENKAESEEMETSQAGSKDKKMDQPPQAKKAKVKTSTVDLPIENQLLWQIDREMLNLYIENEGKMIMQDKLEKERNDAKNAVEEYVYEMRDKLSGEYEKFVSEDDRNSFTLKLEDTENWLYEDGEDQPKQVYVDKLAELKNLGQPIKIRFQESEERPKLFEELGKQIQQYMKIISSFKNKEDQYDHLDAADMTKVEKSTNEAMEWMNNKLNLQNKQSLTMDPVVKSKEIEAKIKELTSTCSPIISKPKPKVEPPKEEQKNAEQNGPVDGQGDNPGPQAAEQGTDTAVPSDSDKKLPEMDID
UniProt Q8TCT9: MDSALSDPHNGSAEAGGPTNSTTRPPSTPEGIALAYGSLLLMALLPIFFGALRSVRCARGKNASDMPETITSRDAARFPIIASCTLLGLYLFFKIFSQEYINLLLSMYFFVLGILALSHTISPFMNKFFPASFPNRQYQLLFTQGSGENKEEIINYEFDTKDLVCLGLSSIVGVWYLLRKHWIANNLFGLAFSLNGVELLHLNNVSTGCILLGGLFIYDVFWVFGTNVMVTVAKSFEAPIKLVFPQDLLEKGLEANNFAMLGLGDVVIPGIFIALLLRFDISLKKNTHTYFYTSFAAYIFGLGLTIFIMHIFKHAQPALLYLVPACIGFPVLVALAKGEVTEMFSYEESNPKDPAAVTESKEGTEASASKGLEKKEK
UniProt P31942: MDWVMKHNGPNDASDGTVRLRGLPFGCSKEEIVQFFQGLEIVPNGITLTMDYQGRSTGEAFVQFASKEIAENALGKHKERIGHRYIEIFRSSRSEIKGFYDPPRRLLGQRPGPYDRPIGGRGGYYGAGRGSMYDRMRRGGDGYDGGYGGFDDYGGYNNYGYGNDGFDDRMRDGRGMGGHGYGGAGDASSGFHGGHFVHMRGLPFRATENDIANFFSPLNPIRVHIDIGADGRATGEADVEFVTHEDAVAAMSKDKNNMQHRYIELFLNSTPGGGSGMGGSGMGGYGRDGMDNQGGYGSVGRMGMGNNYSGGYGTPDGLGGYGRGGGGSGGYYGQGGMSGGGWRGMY
UniProt Q9BQS7: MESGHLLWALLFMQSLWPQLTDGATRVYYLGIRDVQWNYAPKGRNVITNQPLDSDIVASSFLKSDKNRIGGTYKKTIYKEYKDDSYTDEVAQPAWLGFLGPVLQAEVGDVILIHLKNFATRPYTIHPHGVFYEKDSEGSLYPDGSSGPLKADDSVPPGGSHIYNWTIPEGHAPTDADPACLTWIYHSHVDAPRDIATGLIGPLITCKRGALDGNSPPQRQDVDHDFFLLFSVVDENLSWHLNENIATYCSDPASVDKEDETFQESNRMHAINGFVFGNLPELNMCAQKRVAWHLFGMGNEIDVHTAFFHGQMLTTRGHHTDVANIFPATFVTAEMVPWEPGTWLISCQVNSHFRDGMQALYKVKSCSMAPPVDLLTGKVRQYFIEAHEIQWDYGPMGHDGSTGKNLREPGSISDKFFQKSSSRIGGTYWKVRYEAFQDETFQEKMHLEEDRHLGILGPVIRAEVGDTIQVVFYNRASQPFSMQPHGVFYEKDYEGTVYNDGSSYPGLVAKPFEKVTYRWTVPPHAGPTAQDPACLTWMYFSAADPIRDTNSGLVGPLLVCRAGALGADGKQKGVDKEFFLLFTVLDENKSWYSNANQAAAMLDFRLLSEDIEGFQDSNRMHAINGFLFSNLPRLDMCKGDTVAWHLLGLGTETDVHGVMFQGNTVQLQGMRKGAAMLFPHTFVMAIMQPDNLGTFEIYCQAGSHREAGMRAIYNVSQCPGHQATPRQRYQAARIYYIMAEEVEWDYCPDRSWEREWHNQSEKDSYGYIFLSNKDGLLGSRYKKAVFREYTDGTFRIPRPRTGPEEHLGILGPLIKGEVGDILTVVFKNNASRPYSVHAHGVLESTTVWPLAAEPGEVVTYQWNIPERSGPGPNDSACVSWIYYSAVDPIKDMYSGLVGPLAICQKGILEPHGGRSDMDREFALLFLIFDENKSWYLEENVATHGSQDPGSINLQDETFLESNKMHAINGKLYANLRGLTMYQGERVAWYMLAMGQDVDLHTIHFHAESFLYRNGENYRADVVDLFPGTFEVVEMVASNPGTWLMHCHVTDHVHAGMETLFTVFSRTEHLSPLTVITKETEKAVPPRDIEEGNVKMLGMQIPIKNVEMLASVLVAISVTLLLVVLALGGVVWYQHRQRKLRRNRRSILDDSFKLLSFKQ
UniProt Q9NRV9: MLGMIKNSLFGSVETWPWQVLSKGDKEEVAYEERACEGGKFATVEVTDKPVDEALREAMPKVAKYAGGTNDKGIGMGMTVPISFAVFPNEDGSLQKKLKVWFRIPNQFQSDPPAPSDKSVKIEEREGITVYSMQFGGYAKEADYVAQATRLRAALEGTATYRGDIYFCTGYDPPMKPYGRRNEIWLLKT
UniProt O95757: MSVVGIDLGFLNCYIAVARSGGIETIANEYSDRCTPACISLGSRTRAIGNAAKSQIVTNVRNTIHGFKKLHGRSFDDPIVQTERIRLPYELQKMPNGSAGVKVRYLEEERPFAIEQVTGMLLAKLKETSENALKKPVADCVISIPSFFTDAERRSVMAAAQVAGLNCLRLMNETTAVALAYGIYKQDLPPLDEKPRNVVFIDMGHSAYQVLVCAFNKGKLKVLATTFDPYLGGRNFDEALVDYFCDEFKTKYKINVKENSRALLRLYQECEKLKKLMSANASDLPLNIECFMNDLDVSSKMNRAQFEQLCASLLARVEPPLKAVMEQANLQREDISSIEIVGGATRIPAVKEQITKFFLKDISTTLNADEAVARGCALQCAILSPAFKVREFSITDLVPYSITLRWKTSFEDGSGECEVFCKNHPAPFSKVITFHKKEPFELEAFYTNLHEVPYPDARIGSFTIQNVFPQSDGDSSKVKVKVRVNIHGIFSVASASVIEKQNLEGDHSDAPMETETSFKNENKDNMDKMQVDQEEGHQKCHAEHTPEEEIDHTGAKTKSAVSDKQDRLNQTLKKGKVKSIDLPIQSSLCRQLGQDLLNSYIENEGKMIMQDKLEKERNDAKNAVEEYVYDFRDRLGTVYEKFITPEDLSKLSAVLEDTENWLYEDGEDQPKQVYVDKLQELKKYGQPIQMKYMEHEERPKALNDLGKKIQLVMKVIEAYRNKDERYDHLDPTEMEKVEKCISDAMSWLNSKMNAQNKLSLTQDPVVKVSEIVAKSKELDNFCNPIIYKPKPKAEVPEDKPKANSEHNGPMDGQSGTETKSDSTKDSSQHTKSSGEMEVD
UniProt Q8IWL3: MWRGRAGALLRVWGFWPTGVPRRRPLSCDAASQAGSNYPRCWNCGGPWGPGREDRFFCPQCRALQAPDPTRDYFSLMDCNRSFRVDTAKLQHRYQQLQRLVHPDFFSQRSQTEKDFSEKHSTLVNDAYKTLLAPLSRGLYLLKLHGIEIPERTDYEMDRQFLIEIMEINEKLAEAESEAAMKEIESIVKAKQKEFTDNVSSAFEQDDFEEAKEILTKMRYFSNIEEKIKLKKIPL
UniProt P30519: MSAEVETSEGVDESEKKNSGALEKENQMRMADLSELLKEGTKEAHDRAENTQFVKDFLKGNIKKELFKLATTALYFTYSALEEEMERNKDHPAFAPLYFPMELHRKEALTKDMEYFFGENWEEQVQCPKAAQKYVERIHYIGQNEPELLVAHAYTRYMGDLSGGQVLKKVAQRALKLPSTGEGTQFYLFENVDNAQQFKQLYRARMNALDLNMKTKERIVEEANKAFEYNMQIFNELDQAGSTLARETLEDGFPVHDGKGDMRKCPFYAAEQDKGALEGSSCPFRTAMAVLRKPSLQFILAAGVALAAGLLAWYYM
UniProt Q14103: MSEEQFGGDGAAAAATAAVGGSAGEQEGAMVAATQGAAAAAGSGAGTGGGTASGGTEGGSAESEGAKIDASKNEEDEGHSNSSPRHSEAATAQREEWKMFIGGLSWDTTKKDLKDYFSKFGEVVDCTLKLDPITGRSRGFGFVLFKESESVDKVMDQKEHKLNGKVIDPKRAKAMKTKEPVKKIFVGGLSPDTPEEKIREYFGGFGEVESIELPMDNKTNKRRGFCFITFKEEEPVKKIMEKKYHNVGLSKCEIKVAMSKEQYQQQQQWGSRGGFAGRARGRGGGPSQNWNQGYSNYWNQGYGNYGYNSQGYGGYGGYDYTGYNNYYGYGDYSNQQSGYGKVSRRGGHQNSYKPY

Tests used:
Assay in all cases: log2 fold change, soluble protein after heating vs DMSO (PISA); higher = thermal stabilisation; K562 lysate, 10 uM; active = over 0.2 and 3.5 SD of the protein, either way, in both replicates (recomputed)
[1] = compound: NCC(=O)Nc1ccc(-n2nc(C(F)(F)F)cc2-c2ccc3c(ccc4ccccc43)c2)cc1
Outline: (§1)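 Pellets of K562 cells were dounce-homogenised in PBS pH 7.4 with 1 mM MgCl2, and the crude extract was held at 1 mg/mL protein for a 30 min treatment with 10 μM compound. Aliquots were heated for 3 min over 48°C-58°C and pooled before NP-40 was added to 0.5% at 4°C. The supernatant from 21,000xg for 90 min was quantified by TMTpro 16plex LC-MS/MS with channel sums equalised. Values are reported from duplicates as log-two fold change in thermal stability relative to solvent controls.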

[2] = compound: O=C(CCCCCCC(=O)Nc1ccccc1)NO [vorinostat]
Outline: as §1

[3] = compound: O=C(O)c1ccc2c(c1)nc(Nc1cccc(Cl)c1)c1ccncc12 [silmitasertib]
Outline: as §1

[4] = compound: O=C1NC(=O)C(c2cnc3ccccn23)=C1c1cn2c3c(cc(F)cc13)CN(C(=O)N1CCCCC1)CC2
Outline: as §1

[5] = compound: c1cn2cc(-c3ccc4cn[nH]c4c3)nc(Nc3ccc(N4CCOCC4)cc3)c2n1 [entospletinib]
Outline: as §1

Measured: log2 fold change

HSF1 (UniProt Q00613)
inactive: [1] -0.024 | [2] 0.035 | [3] 0.012 | [4] -0.022 | [5] 0.017

HSPA2 (UniProt P54652)
inactive: [1] 0.044 | [2] -0.009 | [3] 0.03 | [4] -0.01 | [5] -0.017

HINT3 (UniProt Q9NQE9)
inactive: [1] -0.019 | [2] -0.109 | [3] -0.033 | [4] -0.046 | [5] -0.037

HSPA14 (UniProt Q0VDF9)
active: [2] -0.226
inactive: [1] -0.022 | [3] 0.035 | [4] -0.007 | [5] -0.009

HSPA1L (UniProt P34931)
inactive: [1] -0.093 | [2] 0.055 | [3] 0.05 | [4] -0.016 | [5] -0.032

HSPA4 (UniProt P34932)
inactive: [1] 0.002 | [2] 0.009 | [3] 0.003 | [4] -0.019 | [5] 0.002

HM13 isoform 2 (UniProt Q8TCT9)
inactive: [1] -0.026 | [2] 0.192 | [3] 0 | [4] -0.02 | [5] -0.02

HNRNPH3 (UniProt P31942)
inactive: [1] -0.04 | [2] -0.096 | [3] 0.021 | [4] -0.085 | [5] 0.013

HNRNPC (UniProt P07910)
inactive: [1] 0.063 | [2] 0.124 | [3] 0.025 | [4] 0.01 | [5] -0.003

HEPH isoform 3 (UniProt Q9BQS7)
inactive: [1] -0.005 | [2] 0.077 | [3] 0.025 | [4] -0.002 | [5] -0.069

HEXB (UniProt P07686)
inactive: [1] 0.006 | [2] 0.075 | [3] 0.017 | [4] -0.043 | [5] 0

HEBP1 (UniProt Q9NRV9)
inactive: [1] -0.051 | [2] 0.056 | [3] 0.15 | [4] -0.064 | [5] 0.147

HIBADH (UniProt P31937)
inactive: [1] 0.059 | [2] 0.125 | [3] -0.04 | [4] 0.008 | [5] -0.011

HIST2H3A (UniProt Q71DI3)
inactive: [1] -0.007 | [2] 0.035 | [3] -0.013 | [4] 0.031 | [5] -0.02

HSPA4L (UniProt O95757)
inactive: [1] 0.002 | [2] -0.038 | [3] -0.002 | [4] -0.018 | [5] 0.01

HK2 (UniProt P52789)
inactive: [1] -0.018 | [3] 0.038 | [4] 0.007 | [5] 0.022
active: [2] -0.443

HIRA (UniProt P54198)
inactive: [1] 0.07 | [2] -0.193 | [3] 0.003 | [4] -0.005 | [5] 0.131

HELB (UniProt Q8NG08)
inactive: [1] -0.023 | [2] -0.103 | [3] 0.036 | [4] 0.005 | [5] 0.022

HSDL2 (UniProt Q6YN16)
inactive: [1] -0.004 | [2] 0.065 | [3] -0.014 | [4] 0.026 | [5] 0.012

HSCB (UniProt Q8IWL3)
inactive: [1] 0.101 | [2] 0.033 | [3] 0.033 | [4] -0.078 | [5] 0.092

HMG20B (UniProt Q9P0W2)
inactive: [1] 0.122 | [2] 0.128 | [3] -0.071 | [4] 0.026 | [5] 0.015

HNRNPUL2 (UniProt Q1KMD3)
inactive: [1] 0.029 | [2] -0.017 | [3] 0.022 | [4] -0.023 | [5] -0.032

HMOX2 (UniProt P30519)
inactive: [1] 0.014 | [2] 0.07 | [3] -0.003 | [4] -0.021 | [5] -0.018

HNRNPD isoform 2 (UniProt Q14103)
inactive: [1] 0.018 | [2] 0.155 | [3] 0.009 | [4] 0.063 | [5] -0.006

Quoted from the listing (2 entries):
HNRNPUL2 (UniProt Q1KMD3)
inactive: [1] 0.029 | [2] -0.017 | [3] 0.022 | [4] -0.023 | [5] -0.032

HMOX2 (UniProt P30519)
inactive: [1] 0.014 | [2] 0.07 | [3] -0.003 | [4] -0.021 | [5] -0.018
